According to patent US20140322227A1, “PEPTIDES FOR TREATMENT OF BONE DEFICIENCY AND AUTOIMMUNE DISORDERS” (H. LEE MOFFITT CANCER CENTER & RESEARCH INSTITUTE, INC., priority 2013, published 2014):
At least one peptide structure holds a part that was inferred or is arguable (an end, a ring closure or a residue). Numbered stars: 1 amine (or outer) side, 2 acyl side, 3 side chain; on linkers, the order of the positions; unused ones are H or OH. Bridge positions count the residues as written; N and C are the ends. Square brackets hold non-standard residues; d marks the D form. Peptide text beside a SMILES is read from it. * marks the point of attachment. dProlinol(O-CH2CO) = O=C(COC[C@H]1CCCN1[*:1])[*:2]; N(2-Aminoethyl)Gly = O=C(CN(CCN[*:3])[*:1])[*:2]; Nle = CCCC[C@H](N)C(=O)O; Ms = CS(=O)(=O)*

Assays:
CD8 T-cell population = assay: Flow cytometry of CD8 population and its active subset in bone marrow, spleen and lymph node of 5TGM1 myeloma mice; type: in vivo, C57BL/KaLwRij mice; details: 25 mg/kg i.p.
[1] = tested on: mouse pre-osteoblastic MC3T3-E1 cells; assay: Alkaline phosphatase (ALP) activity in pre-osteoblastic cells; type: cell-based; details: seven days
RAW 264.7 cells [2] = assay: MTT cell proliferation assay in RAW 264.7 cells; type: cell-based, murine
[3] = tested on: CD11b cells derived from the CD44 knockout mouse; assay: Osteoclasts from CD11b cells of CD44 knockout and wild type mice (TRAPc count); type: cell-based; details: CD44 knockout vs wild type C57BL/6J; varying concentrations, 24 hours
[4] = tested on: regulatory T cells (Treg); assay: Flow cytometry of regulatory T cells (Treg) in bone marrow, spleen and lymph node of 5TGM1 myeloma mice; type: in vivo, C57BL/KaLwRij mice; details: i.p. 3 times a week
tumor bearing tibias = assay: Bone density (BV/TV) of tumor bearing tibias by CT scanning in myeloma model; type: in vivo; details: compared to vehicle control (VC) treated tumor bearing mice
Protocol: FIG. 43. MTI-101 treated mice show increased trabecular bone density compared to tumor-bearing vehicle control-treated mice (VC). The same 10 tibia bones imaged by Faxitron in FIG. 43 were imaged with a Micro PET/SPECT/CT (Siemens Inveon). After imaging, the bones were reconstructed using COBRA (Constraint Based Reconstruction and Analysis) and analyzed with the Siemens Inveon workstation. 30 separate longitudinal images for each tibia were measured for both bone volume and total volume with the indicated parameters (2 mm below growth plate to 2 mm above junction with fibula). All 30 images were combined and the tibia were analyzed by bone volume/total volume (BV/TV). Images of the control group were compared to both MTI-101 and bortezomib treated mice. […] The same bones that were assayed for tumor volume in FIG. 43 were used to determine bone density by CT scanning.

[5] = tested on: RAW 264.7 cell-differentiated osteoclasts; assay: TRAP staining count of RANKL-differentiated osteoclasts treated for 24 hrs; type: cell-based, murine
CD4 T-cell population = assay: Flow cytometry of CD4 population and its active subset in bone marrow, spleen and lymph node of 5TGM1 myeloma mice; type: in vivo, C57BL/KaLwRij mice; details: 25 mg/kg i.p.
RAW 264.7 cells [6] = assay: RANKL-mediated osteoclastogenesis of RAW 264.7 cells in presence of MTI-101 (TRAP count); type: cell-based, murine
myeloma tumor burden = details: previously determined; cited from earlier work
[7] = lymph node, compared to the sham mice

CCCC[C@@H]1NC(=O)CN(S(C)(=O)=O)CCNC(=O)[C@H](CCCCN)NC(=O)[C@H](CC(C)C)NC(=O)[C@H](CCCCN)NC(=O)[C@H](CC(C)C)NC(=O)[C@H](CCCCN)NC(=O)COC[C@H]2CCCN2C(=O)[C@H](Cc2c[nH]c3ccccc23)NC(=O)[C@H](C)NC(=O)[C@H](C(C)C)NC(=O)[C@H](C(C)C)NC1=O [MTI-101] (Ms-[N(2-Aminoethyl)Gly][Nle]VVAW[dProlinol(O-CH2CO)]KLKLK; lactam 1-C)
activated CD8 cell population (CD69 positive) (CD8 T-cell population; bone marrow, vs V.C. and sham): decrease in activated CD8 cell population to levels comparable to those seen in sham mice | total CD8 cell population (CD8 T-cell population; bone marrow, vs V.C. and sham): restored not only the total CD8 cell population | decrease of CD8 total cell population (CD8 T-cell population; [7]): 51% | decrease of activated CD8 cell population (CD8 T-cell population; [7]): 83% | decrease of total CD8 cell population (CD8 T-cell population; spleen, compared to both sham and V.C group): 25% | CD8 activated cells, lower than the sham mice (CD8 T-cell population; spleen, compared to sham mice): 25% | ALP activity ([1]; 12.5 μM): this increase in ALP activity was lost | ALP activity ([1]; 50 μM, compared to regular media (RM)): significantly suppressed ALP activity | ALP activity ([1]; 0.78 and 3.125 μM, vs differentiation media (DM)): increased ALP activity to levels comparable to those seen in cells cultured in DM | cell proliferation (MTT) (RAW 264.7 cells [2]; multiple dosing 6.25 to 50 μM on days 1, 3 and 5, read day 7): neither affected cell proliferation | cell proliferation (MTT) (RAW 264.7 cells [2]; single treatment 6.25 to 50 μM, 72 hrs): neither affected cell proliferation | reduction of osteoclast numbers [3]: resistant in reducing osteoclast numbers | total active Treg cell population ([4]; bone marrow, vs sham and VC): no change was observed | drop in active Treg levels ([4]; lymph nodes, compared to the sham mice): 45% | Treg cell levels ([4]; spleen, vs V.C. (doubled) and sham): reversed this doubling and brought the levels of Treg cells to levels that were comparable to those seen in sham mice | bone density (bone volume/total volume, BV/TV) (tumor bearing tibias): increased bone density | decrease in the number of osteoclasts as compared to control ([5]; 50 μM, 24 hrs): four-fold decrease | number of osteoclasts (TRAP) ([5]; 6.25 to 50 μM added on day 6, 24 hrs): dose-dependent decrease in the number of osteoblasts | activated CD4 cells (CD69 positive) (CD4 T-cell population; bone marrow, vs sham and VC): remained comparable in all the three groups of mice | total CD4 cell population (CD4 T-cell population; bone marrow, vs sham and VC): no change was observed | decrease of CD4 total cell population (CD4 T-cell population; [7]): 50% | decrease of activated CD4 cell population (CD4 T-cell population; [7]): 80% | decrease of total CD4 cell population (CD4 T-cell population; spleen, compared to both sham and V.C. group): 40% | activated CD4 cells (CD69 positive) (CD4 T-cell population; spleen, vs V.C. and sham): decreased the activated CD4 cell to levels comparable to the sham mice | formation of osteoclasts (RAW 264.7 cells [6]; 25 and 50 μM on day 1, 3 and 5 with 50 ng/ml RANKL): completed inhibited the formation of osteoclasts | RANKL-mediated differentiation of RAW 264.7 cells into osteoclasts (RAW 264.7 cells [6]; different doses on day 1, 3 and 5 with 50 ng/ml RANKL, TRAP after 7 days): dose-dependently inhibited | survival (myeloma tumor burden): increases the survival
